Values from PubChem BioAssay AID1259261 (Sanger Institute, 2017)
Shown is a random part of 794 reagents tested. 10 of them (1.3%) count as active. 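Calls reflect knock-down alone without drug; synergy scores with BYL719, cetuximab or trametinib do not affect calls.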 Entries without a mark were called inactive. No viability above 1 is reported: the scale is capped. Not all columns of the deposit are shown. The record does not give: the amount of reagent, the time to read-out.

- Purpose: 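Find kinase silencing that cuts viability alone or with anchor drugs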 (primary screen)
- Cell system: HCC2998 human colorectal cancer cells
- Reagent: siRNA pool against human genes
- Challenge: anchor drugs BYL719 1 µM, cetuximab 5 µg/ml or trametinib 10 nM, each compared with DMSO vehicle
- Detection: 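Viability as fraction of non-targeting control plus robust z-score without drug; synergy scores compare knock-down plus drug against each alone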
- Direction: viability z-score, knock-down alone: higher = more viable cells than controls; viability fraction, knock-down alone: higher = more viable cells
- Rule for the call: 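Essential when the siRNA-alone viability robust z-score is below -3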
- Calls: active = essential; inactive = no change

What is on record for MAPK10?
viability z-score, knock-down alone: 0.268; viability fraction, knock-down alone: 0.882

What did the screen give for PAK5?
viability z-score, knock-down alone: -2.09; viability fraction, knock-down alone: 0.587

How did the screen score UHMK1?
viability z-score, knock-down alone: 0.0914; viability fraction, knock-down alone: 0.86

What did the screen give for RPS6KA3?
viability z-score, knock-down alone: 0.837; viability fraction, knock-down alone: 0.954

With PRKAG2, what was measured?
viability z-score, knock-down alone: 0.639; viability fraction, knock-down alone: 0.929

Targets above whose gene name begins with P or p (2):
PAK5: viability z-score, knock-down alone = -2.09; viability fraction, knock-down alone = 0.587
PRKAG2: viability z-score, knock-down alone = 0.639; viability fraction, knock-down alone = 0.929

The results go on:
For BRAF, what was measured?
viability z-score, knock-down alone: -1.48; viability fraction, knock-down alone: 0.663

For EFNB3, what was measured?
viability z-score, knock-down alone: -0.0849; viability fraction, knock-down alone: 0.838

Which result is listed for MAP3K9?
viability z-score, knock-down alone: -1.84; viability fraction, knock-down alone: 0.618

For CSNK1G3, what was measured?
viability z-score, knock-down alone: 0.653; viability fraction, knock-down alone: 0.931

What did the screen give for MPP3?
viability z-score, knock-down alone: -0.0251; viability fraction, knock-down alone: 0.846

Which result is listed for DGKK?
viability z-score, knock-down alone: 0.584; viability fraction, knock-down alone: 0.922

For TSSK6, what does the deposit list?
viability z-score, knock-down alone: 0.174; viability fraction, knock-down alone: 0.871
